# Results from one PubChem assay

From PubChem BioAssay record AID1053133 (Broad Institute, 2014).

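Plate-reader measure of the Venus reporter marking one vaccinia stage in infected cells (the cell line is not named here); read time unknown. The test concentration is not given here. Percent change in Venus reporter signal; lower (more negative) values mean stronger inhibition of that viral stage.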

Values are in %. How 0% and 100% were set is not given here. Common to all entries: measured here: Venus reporter, other viral stage. Part of the compounds only, not a random draw; the main read-out is not listed here.

structure | activity change (Venus) (%)
CC(C)CC#Cc1ccc2c(c1)O[C@H](CN(C)C(=O)Cc1ccccc1)[C@H](C)CN([C@H](C)CO)S2(=O)=O | -38.59
C[C@H]1CN([C@@H](C)CO)S(=O)(=O)c2ccc(Br)cc2O[C@@H]1CN(C)Cc1ccccc1 | -37.5
COc1ccc(S(=O)(=O)Nc2ccc3c(c2)C(=O)N([C@H](C)CO)C[C@@H](C)[C@H](CN(C)C(=O)C2CCCCC2)OCCCC[C@@H](C)O3)cc1 | -67.5
C[C@@H]1CN([C@@H](C)CO)C(=O)c2cccc(NS(=O)(=O)c3ccccc3)c2O[C@@H]1CN(C)C(=O)Nc1ccc(C(F)(F)F)cc1 | -17.39
Cc1noc(C)c1S(=O)(=O)Nc1ccc2c(c1)C(=O)N([C@@H](C)CO)C[C@@H](C)[C@@H](CN(C)Cc1ccc(Cl)c(Cl)c1)O2 | -26.09
Cc1ccc(S(=O)(=O)N(C)C[C@H]2Oc3ccc(NC(=O)Nc4ccc(F)cc4)cc3CC(=O)N([C@H](C)CO)C[C@H]2C)cc1 | -23.4
COc1ccc(C#Cc2ccc3c(c2)O[C@@H](CN(C)C(=O)NC2CCCCC2)[C@H](C)CN([C@H](C)CO)S3(=O)=O)cc1 | -44.39
CCC(=O)N1CC(=O)N2[C@H](CO)[C@H](c3ccc(C#CC4CCCCC4)cc3)[C@H]2C1 | -93.46
N#Cc1cccc(-c2ccc([C@H]3[C@H](CO)N4CCCCN(C(=O)Nc5ccc(F)cc5)C[C@@H]34)cc2)c1 | -42.85
Cc1ccc(S(=O)(=O)N(C)C[C@@H]2Oc3ccc(NC(=O)NC4CCCCC4)cc3C(=O)N([C@@H](C)CO)C[C@@H]2C)cc1 | -47.07
O=C(C[C@H]1CC[C@H]2[C@@H](COC[C@@H](O)CN2C(=O)Nc2ccc(Cl)c(Cl)c2)O1)NCc1ccc(Cl)c(Cl)c1 | -77.76
O=C(c1ccccc1F)N1CC(=O)N2[C@H](CO)[C@@H](c3ccc(C#Cc4ccc(F)cc4)cc3)[C@@H]2C1 | -46.22
C[C@H]1CCCCO[C@H](CN(C)CC2CCCCC2)[C@@H](C)CN([C@@H](C)CO)C(=O)c2cc(NS(=O)(=O)c3ccccc3)ccc2O1 | -59.74
C[C@H]1CN([C@@H](C)CO)C(=O)c2cccc(NC(=O)Nc3ccc(F)cc3)c2O[C@H]1CN(C)S(=O)(=O)c1ccc(Cl)cc1 | -70.25
Cc1cccc(-c2ccc([C@H]3[C@@H](CO)N4CCCCN(S(=O)(=O)c5cccc(C)c5)C[C@@H]34)cc2)c1 | -48.18
COc1ccc(CN(C)C[C@H]2Oc3ccc(NC(=O)Cc4cn(C)c5ccccc45)cc3CC(=O)N([C@H](C)CO)C[C@@H]2C)cc1 | -25.35
CO[C@@H](CN(C)S(=O)(=O)c1cccc(Cl)c1)[C@@H](C)CN([C@H](C)CO)S(=O)(=O)c1cccc(Cl)c1 | -29.56
COc1cccc(-c2ccc3c(c2)O[C@H](CN(C)C(=O)C2CCCCC2)[C@@H](C)CN([C@H](C)CO)S3(=O)=O)c1 | -70.19
C[C@H]1CN([C@@H](C)CO)C(=O)c2cc(NS(=O)(=O)c3ccc(Cl)cc3)ccc2O[C@@H]1CN(C)Cc1ccc(Cl)c(Cl)c1 | -40.68
COc1ccc(-c2ccc([C@H]3[C@@H](CO)N4CCCCN(C(=O)c5ccc(F)cc5)C[C@@H]34)cc2)cc1 | -41.22
COc1ccc(-c2ccc3c(c2)O[C@@H](CN(C)CC2CCOCC2)[C@H](C)CN([C@H](C)CO)S3(=O)=O)cc1 | -44.23
COc1ccc(CN(C)C[C@@H]2OCCCC[C@H](C)Oc3ccc(NC(=O)Nc4ccc(C(F)(F)F)cc4)cc3C(=O)N([C@@H](C)CO)C[C@H]2C)cc1 | -27.24
N#C[C@@H]1[C@@H](c2ccccc2C2=CCCCC2)[C@H](CO)N1S(=O)(=O)c1cccc(F)c1 | -34.48
C[C@H]1CN([C@@H](C)CO)S(=O)(=O)c2ccc(/C=C/c3ccccc3)cc2O[C@@H]1CN(C)Cc1cncnc1 | -48.08
O=C(C[C@@H]1CC[C@H]2[C@@H](COC[C@@H](O)CN2S(=O)(=O)c2cccc(F)c2)O1)Nc1ccc(-c2ccccc2)cc1 | -50.92
C[C@H](CO)N1C[C@H](C)[C@@H](CN(C)Cc2ccc(C(F)(F)F)cc2)Oc2ccc(NC(=O)CCC(F)(F)F)cc2CC1=O | -41.41
COc1ccc(CN(C)C[C@H]2OCCCC[C@H](C)Oc3ccc(NS(=O)(=O)c4cccs4)cc3C(=O)N([C@H](C)CO)C[C@H]2C)cc1 | -35.68
Cc1ccc(-c2ccc([C@@H]3[C@H]4CN(C(=O)c5ccncc5)CCCCN4[C@H]3CO)cc2)cc1 | -39.67
COc1cccc(-c2ccc3c(c2)[C@H]2[C@H](CCN2S(=O)(=O)c2ccccc2F)[C@H](CO)N3)c1 | -55.87
C[C@@H]1CN([C@H](C)CO)C(=O)c2cccc(NC(=O)Nc3cccc4ccccc34)c2O[C@@H]1CN(C)CC1CCCCC1 | -24.15
C/C=C/c1ccc([C@H]2[C@@H](CO)N3CCCCN(S(=O)(=O)c4ccc(F)cc4)C[C@H]23)cc1 | -38.73
COc1ccc(C#Cc2ccc([C@@H]3[C@H](CO)N4CCCCN(C)C[C@@H]34)cc2)cc1 | -77.55
C[C@@H]1CCCCO[C@@H](CN(C)Cc2ccccc2)[C@H](C)CN([C@@H](C)CO)C(=O)c2cc(NS(=O)(=O)c3ccccc3)ccc2O1 | -36.98
O=C1CN(S(=O)(=O)Cc2ccccc2)C[C@@H]2[C@H](c3ccc(C#Cc4cccc(F)c4)cc3)[C@@H](CO)N12 | -44.22
CN(C)CC(=O)N1[C@H](CO)[C@H](c2ccc(C#CC3CCCCC3)cc2)[C@@H]1C#N | -58.2
C[C@@H]1CN([C@H](C)CO)C(=O)c2cc(NC(=O)Nc3cccc4ccccc34)ccc2O[C@@H]1CN(C)Cc1ccc2c(c1)OCO2 | -53.1
COc1ccc(NC(=O)N2CCCCN3[C@H](C2)[C@@H](c2ccc(-c4ccccc4F)cc2)[C@@H]3CO)cc1 | -61.02
COc1ccc(NC(=O)N2C[C@@H]3N[C@H](C2)[C@@H]3c2ccc(-c3ccc(OC)cc3)cc2)cc1 | -91.3
C[C@@H]1CN([C@@H](C)CO)C(=O)c2c(c3ccccc3n2C)-c2ccccc2CO[C@@H]1CN(C)C(=O)N[C@H](C)c1ccccc1 | -38.77
O=C(C[C@@H]1CC[C@H]2[C@@H](COC[C@H](O)CN2Cc2ccc(Oc3ccccc3)cc2)O1)N1CCCCC1 | -30.63
CN(C)CC(=O)N1CCCCN2[C@H](CO)[C@H](c3ccc(/C=C/c4ccccc4)cc3)[C@H]2C1 | -82.64
COc1cccc(S(=O)(=O)Nc2ccc3c(c2)[C@H]2C[C@H](CC(=O)NCc4ccc(Cl)cc4)O[C@H](CO)[C@H]2O3)c1 | -26.6
C[C@H]1CN([C@@H](C)CO)S(=O)(=O)c2ccc(C#Cc3ccncc3)cc2O[C@H]1CN(C)C(=O)Nc1ccc2c(c1)OCO2 | -45.25
C[C@@H]1CCCCO[C@H](CN(C)C(=O)C2CCCCC2)[C@H](C)CN([C@@H](C)CO)C(=O)c2cc(NC(=O)Cc3ccccc3)ccc2O1 | -26.36
CC(C)CC#Cc1ccc2c(c1)O[C@@H](CN(C)Cc1cncnc1)[C@@H](C)CN([C@@H](C)CO)S2(=O)=O | -33.88
O=C(Nc1ccccc1F)N1CC(=O)N2[C@H](C1)[C@@H](c1ccc(C#Cc3ccc(F)cc3)cc1)[C@@H]2CO | -57.16
CC(C)CC#Cc1ccc2c(c1)O[C@H](CN(C)CC1CCOCC1)[C@H](C)CN([C@@H](C)CO)S2(=O)=O | -42.22
CC(C)CC#Cc1ccc2c(c1)O[C@@H](CN(C)C(=O)c1ccccc1)[C@H](C)CN([C@@H](C)CO)S2(=O)=O | -61.87
CCCC(=O)N1CCC2(CC1)CN(C(=O)Nc1cccc(F)c1)[C@@H](CO)c1c2c2ccc(OC)cc2n1C | -36.01
C[C@@H]1CN([C@@H](C)CO)S(=O)(=O)c2ccc(C3=CCCCC3)cc2O[C@H]1CN(C)C(=O)C1CCCCC1 | -43.31
O=C(C1CCCCC1)N1C[C@H]2[C@@H](c3ccccc31)[C@H](CO)N2C(=O)Cc1ccccn1 | -17.62

Repeated from the top, 6 entries:

| structure | activity change (Venus) (%) |
|---|---|
| `CC(C)CC#Cc1ccc2c(c1)O[C@H](CN(C)C(=O)Cc1ccccc1)[C@H](C)CN([C@H](C)CO)S2(=O)=O` | -38.59 |
| `C[C@H]1CN([C@@H](C)CO)S(=O)(=O)c2ccc(Br)cc2O[C@@H]1CN(C)Cc1ccccc1` | -37.5 |
| `COc1ccc(S(=O)(=O)Nc2ccc3c(c2)C(=O)N([C@H](C)CO)C[C@@H](C)[C@H](CN(C)C(=O)C2CCCCC2)OCCCC[C@@H](C)O3)cc1` | -67.5 |
| `C[C@@H]1CN([C@@H](C)CO)C(=O)c2cccc(NS(=O)(=O)c3ccccc3)c2O[C@@H]1CN(C)C(=O)Nc1ccc(C(F)(F)F)cc1` | -17.39 |
| `Cc1noc(C)c1S(=O)(=O)Nc1ccc2c(c1)C(=O)N([C@@H](C)CO)C[C@@H](C)[C@@H](CN(C)Cc1ccc(Cl)c(Cl)c1)O2` | -26.09 |
| `Cc1ccc(S(=O)(=O)N(C)C[C@H]2Oc3ccc(NC(=O)Nc4ccc(F)cc4)cc3CC(=O)N([C@H](C)CO)C[C@H]2C)cc1` | -23.4 |